Data on three molecules can be found in article PMC7814725.

By UniProt entry, the sequences of proteins in these tests, tags left out.
UniProt Q14203: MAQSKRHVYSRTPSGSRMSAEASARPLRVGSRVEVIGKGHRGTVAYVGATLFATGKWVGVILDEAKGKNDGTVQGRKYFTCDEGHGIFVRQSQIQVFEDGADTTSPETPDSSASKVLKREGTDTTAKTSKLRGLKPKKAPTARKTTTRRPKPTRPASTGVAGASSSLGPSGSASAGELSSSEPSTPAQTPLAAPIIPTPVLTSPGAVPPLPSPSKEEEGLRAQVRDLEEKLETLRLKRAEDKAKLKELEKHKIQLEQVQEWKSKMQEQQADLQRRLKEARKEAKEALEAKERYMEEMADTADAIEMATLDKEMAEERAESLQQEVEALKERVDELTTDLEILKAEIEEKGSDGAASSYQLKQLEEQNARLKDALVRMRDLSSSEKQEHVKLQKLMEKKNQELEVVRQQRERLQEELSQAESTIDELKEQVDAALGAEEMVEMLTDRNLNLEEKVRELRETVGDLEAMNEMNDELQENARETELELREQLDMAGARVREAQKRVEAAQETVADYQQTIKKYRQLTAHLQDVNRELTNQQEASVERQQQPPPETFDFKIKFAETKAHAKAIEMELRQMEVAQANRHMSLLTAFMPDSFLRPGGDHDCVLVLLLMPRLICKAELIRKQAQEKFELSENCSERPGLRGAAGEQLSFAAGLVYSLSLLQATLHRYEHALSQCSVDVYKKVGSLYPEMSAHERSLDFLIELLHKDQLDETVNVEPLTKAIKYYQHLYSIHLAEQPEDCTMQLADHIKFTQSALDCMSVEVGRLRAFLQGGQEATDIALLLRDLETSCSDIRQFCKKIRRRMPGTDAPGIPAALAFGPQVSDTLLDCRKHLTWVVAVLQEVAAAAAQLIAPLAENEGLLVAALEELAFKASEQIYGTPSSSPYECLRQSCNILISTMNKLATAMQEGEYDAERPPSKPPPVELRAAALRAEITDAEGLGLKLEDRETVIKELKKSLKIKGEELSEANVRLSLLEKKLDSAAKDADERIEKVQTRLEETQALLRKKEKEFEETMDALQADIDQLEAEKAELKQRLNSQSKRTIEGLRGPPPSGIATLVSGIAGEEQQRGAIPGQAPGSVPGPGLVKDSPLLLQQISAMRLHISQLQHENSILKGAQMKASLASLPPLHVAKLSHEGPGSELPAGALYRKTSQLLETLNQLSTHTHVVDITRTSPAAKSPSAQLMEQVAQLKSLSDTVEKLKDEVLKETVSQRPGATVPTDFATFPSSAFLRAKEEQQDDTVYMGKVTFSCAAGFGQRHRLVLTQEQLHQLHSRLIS

The labels stand for the following.
B1: GFP-hDysbindin middle region (88-180 aa) (domain or fragment, UniProt Q96EV8 88-180)
chain: EKKKTSLVELQEQLQQLPALIADLESMTANLTHLEASFEEVENNLLHLEDLCGQCELERCKHMQSQQLENYKKNKRKELETFKAELDAEHAQK
B2: GFP-hDysbindin N-terminal region (1-87 aa) (domain or fragment, UniProt Q96EV8 1-87)
chain: MLETLRERLLSVQQDFTSGLKTLSDKSREAKVKSKPRTVPFLPKYSAGLELLSRYEDTWAALHRRAKDCASAGELVDSEVVMLSAHW
B3: GFP-hDysbindin C-terminal region (181-351 aa) (domain or fragment, UniProt Q96EV8 181-351)
chain: VLEMEHTQQMKLKERQKFFEEAFQQDMEQYLSTGYLQIAERREPIGSMSSMEVNVDMLEQMDLMDISDQEALDVFLNSGGEENTVLSPALGPESSTCQNEITLQVPNPSELRAKPPSSSSTCTDSATRDISEGGESPVVQSDEEEVQVDTALATSHTDREATPDGGEDSDS

No constants are given. Whether binding was seen depends on the method and setting. In cells and extracts the contact can be indirect. Some entries that bind do so weakly or less than the wild type. Tags and fused reporters may be left off the sequences shown.

The target of this test is FLAG-p150^glued (human dynactin subunit 1 isoform 1) (human) (UniProt Q14203). Put plainly: co-IP; lysates of transfected HEK293 cells in ELB lysis buffer (50 mM Tris pH 8.0, 250 mM NaCl, 0.1% NP-40, 5 mM EDTA); 1-2 ug anti-FLAG or anti-GFP antibody overnight at 4 C, protein-A agarose, three washes; western blot for the tags; in Fig. 2h and 2j with or without co-expressed dysbindin. Background: In western blotting, separated proteins are transferred to a membrane and probed.
As for B1, the binding result is listed as “no binding”.
With B2, the binding entry is recorded as “binds”.
In the case of B3, the binding entry is recorded as “no binding”.
